For 16 compounds, survivor count and T/C results are on record in PubChem BioAssay AID210 (DTP/NCI, 2004).

This experiment concerns CD2F1 mice, ip Colon 26 adenocarcinoma, median survival T/C. Put plainly: NCI In Vivo Anticancer Drug Screen. Data for tumor model Colon 26 Adenocarcinoma (intraperitoneal) in CD2F1 (CDF1) mice. The conditions noted are these: T/C endpoint: median survival time, higher T/C = longer survival. The protocol:
The antitumor activity of compounds was measured in mice bearing transplantable tumors. Survival or tumor size were measured and the results are expressed as the measurement made in the treated group (T) divided by the measurement made in the vehicle treated control group (C). The tumor model used in this assay is Colon 26 Adenocarcinoma (intraperitoneal) in CD2F1 (CDF1) mice

SMILES strings stand for the structures. The list does not hold the whole screen: it is rich in T/C values a quarter to a half above the control, in often repeated tests (any T/C) and in doses without a T/C. Other doses and runs of a compound stand elsewhere. T/C is the treated group as % of the vehicle group. Some doses have a count of surviving animals in place of a T/C: the source holds a T/C of zero for them, seemingly a mark for toxic or unscored doses. Some survivor counts are full or nearly so, which does not show that the dose was tolerated: survival well below the control is almost never listed, so the zero probably covers shortened survival too. Counts of survivors are from the toxicity check (mostly the fifth day) where no day follows; animals may have died later. Schedules are NCI's codes, taken here to give the interval after Q, in days (D) or hours (H), and the number of doses after X. Some entries were tested several times; the results are listed from low to high. Where survival is the endpoint, the PubChem record calls one and a half times the control and up active, and a quarter to a half above the control has no call in these data; cut-offs in other NCI protocols can differ. Some T/C values carry the count of animals alive at the toxicity check (mostly the fifth day); where none is given, no animal had died by that day.

As to `CCCCCCCC(=O)[O][Hg][CH2]C1COC([CH2][Hg][O]C(=O)CCCCCCC)CO1` (stereo not drawn), the survivor count is 2 of 10 (dose: 50.0 mg/kg/injection, schedule: Q04DX003 (ip), vehicle: saline with Tween-80); 0 of 10 (dose: 100.0 mg/kg/injection, schedule: Q04DX003 (ip), vehicle: saline with Tween-80); 0 of 10 (dose: 200.0 mg/kg/injection, schedule: Q04DX003 (ip), vehicle: saline with Tween-80).

Consider `CC(=O)OCC(=O)[C@@]12OC(C)(C)O[C@@H]1C[C@H]1[C@@H]3CC(C=O)=C4C=C(OCCCl)CC[C@]4(C)[C@@]3(F)[C@@H](O)C[C@@]12C`, for which the survivor count by setting is: (dose: 12.5 mg/kg/injection, schedule: Q04DX002 (ip), vehicle: Klucel (hydroxypropylcellulose) (HPC)) 10 of 10; (dose: 25.0 mg/kg/injection, schedule: Q04DX002 (ip), vehicle: Klucel (hydroxypropylcellulose) (HPC)) 10 of 10; (dose: 50.0 mg/kg/injection, schedule: Q04DX002 (ip), vehicle: Klucel (hydroxypropylcellulose) (HPC)) 10 of 10; (dose: 100.0 mg/kg/injection, schedule: Q04DX002 (ip), vehicle: Klucel (hydroxypropylcellulose) (HPC)) 10 of 10; (dose: 200.0 mg/kg/injection, schedule: Q04DX002 (ip), vehicle: Klucel (hydroxypropylcellulose) (HPC)) 10 of 10; (dose: 400.0 mg/kg/injection, schedule: Q04DX002 (ip), vehicle: Klucel (hydroxypropylcellulose) (HPC)) 10 of 10.

Turning to `C[C@@]1(CO)[C@H](O)CC[C@@]2(C)[C@H]1CC[C@H]1C[C@@H]3C[C@@]12CC[C@@]3(O)COC(=O)CN`, the survivor count is, setting by setting: (dose: 150.0 mg/kg/injection, schedule: Q01DX009 (ip), vehicle: saline + alcohol) 8 of 10; (dose: 200.0 mg/kg/injection, schedule: Q04DX003 (iv), vehicle: saline) 4 of 10; (dose: 400.0 mg/kg/injection, schedule: Q04DX003 (iv), vehicle: saline) 0 of 10.

For the compound `COC(=O)Nc1cccc(-c2nc3ccc(NC(=O)OC)cc3c(=O)n2-c2ccccc2)c1`, the T/C (dose: 32.0 mg/kg/injection, schedule: Q04DX003 (ip), vehicle: Klucel (hydroxypropylcellulose) (HPC)) is 127 % of control. Further, the survivor count (dose: 128.0 mg/kg/injection, schedule: Q04DX003 (ip), vehicle: Klucel (hydroxypropylcellulose) (HPC)) is recorded as 4 of 10; the survivor count (dose: 256.0 mg/kg/injection, schedule: Q04DX003 (ip), vehicle: Klucel (hydroxypropylcellulose) (HPC)) is listed as 1 of 10; the survivor count (dose: 512.0 mg/kg/injection, schedule: Q04DX003 (ip), vehicle: Klucel (hydroxypropylcellulose) (HPC)) is reported as 0 of 10; the survivor count (dose: 1024.0 mg/kg/injection, schedule: Q04DX003 (ip), vehicle: Klucel (hydroxypropylcellulose) (HPC)) is listed as 0 of 10.

For the compound `CC1(C(=O)O)C(O)CCC2(C)C1CCC1CC3CC12CCC3(O)CO` (stereo not drawn), under “dose: 400.0 mg/kg/injection, schedule: Q04DX002 (ip), vehicle: distilled water + Tween-80”, the survivor count is reported as 10 of 10.

For the compound `CC[C@](O)(C(=O)O)c1cc2n(c(=O)c1CO)Cc1cc3ccccc3nc1-2`, the T/C (dose: 50.0 mg/kg/injection, schedule: Q04DX003 (ip), vehicle: saline) is 128 % of control. Moreover, the survivor count reads like this: (dose: 100.0 mg/kg/injection, schedule: Q04DX003 (ip), vehicle: saline) 6 of 10; (dose: 200.0 mg/kg/injection, schedule: Q04DX003 (ip), vehicle: saline) 2 of 10.

As to `CNCCNc1ccc(NCCNC)c2c1C(=O)c1ccccc1C2=O`, the survivor count (dose: 24.0 mg/kg/injection, schedule: Q01DX009 (ip), vehicle: acid diluted with saline) was 10 of 10.

Take `CN(C)CCNc1ccc(O)c2c1C(=O)c1ccccc1C2=O`: the T/C (dose: 40.0 mg/kg/injection, schedule: Q01DX009 (ip), vehicle: acid diluted with saline) is 135 % of control. Further, the survivor count runs as follows: (dose: 160.0 mg/kg/injection, schedule: Q01DX009 (ip), vehicle: acid diluted with saline) 7 of 10 and 10 of 10; (dose: 320.0 mg/kg/injection, schedule: Q01DX009 (ip), vehicle: acid diluted with saline) 7 of 10.

For `NC(=O)c1cn(C2OC(CO)C(O)C2O)c2ncnc(N)c12` (stereo not drawn), the T/C was 139 % of control (dose: 0.5 mg/kg/injection, schedule: Q04DX003 (ip), vehicle: Klucel (hydroxypropylcellulose) (HPC)); 140 % of control (dose: 1.0 mg/kg/injection, schedule: Q04DX003 (ip), vehicle: Klucel (hydroxypropylcellulose) (HPC)); 144 % of control (dose: 4.0 mg/kg/injection, schedule: Q04DX003 (ip), vehicle: Klucel (hydroxypropylcellulose) (HPC)). For the same compound, the survivor count (dose: 8.0 mg/kg/injection, schedule: Q04DX003 (ip), vehicle: Klucel (hydroxypropylcellulose) (HPC)) is 4 of 10.

For `OC(CBr)C(O)C(O)C(O)CBr` (stereo not drawn), the T/C was 136 % of control (dose: 200.0 mg/kg/injection, schedule: Q04DX003 (ip), vehicle: Klucel (hydroxypropylcellulose) (HPC)) and 149 % of control (dose: 400.0 mg/kg/injection, schedule: Q04DX003 (ip), vehicle: Klucel (hydroxypropylcellulose) (HPC)).

As to `Nc1nc(=S)c2[nH]cnc2[nH]1`, the T/C is 105 % of control (dose: 2.0 mg/kg/injection, schedule: Q04DX003 (ip), vehicle: alkali diluted with saline, evaluated on day 60); 106 [9 of 10 alive], 114, 120, 125, 182 % of control (dose: 2.0 mg/kg/injection, schedule: Q04DX003 (ip), vehicle: alkali diluted with saline, evaluated on day 70); 141 % of control [9 of 10 alive] (dose: 4.0 mg/kg/injection, schedule: Q04DX003 (ip), vehicle: alkali diluted with saline, evaluated on day 60); 119, 120, 124, 140, 166 % of control (dose: 4.0 mg/kg/injection, schedule: Q04DX003 (ip), vehicle: alkali diluted with saline, evaluated on day 70); 192 % of control (dose: 8.0 mg/kg/injection, schedule: Q04DX003 (ip), vehicle: alkali diluted with saline, evaluated on day 60); 135, 145, 156, 162, 247 % of control (dose: 8.0 mg/kg/injection, schedule: Q04DX003 (ip), vehicle: alkali diluted with saline, evaluated on day 70). Besides, the T/C is, setting by setting: (dose: 16.0 mg/kg/injection, schedule: Q04DX003 (ip), vehicle: alkali diluted with saline, evaluated on day 60) 138 % of control; (dose: 16.0 mg/kg/injection, schedule: Q04DX003 (ip), vehicle: alkali diluted with saline, evaluated on day 70) 132, 142, 147, 157, 232 % of control; (dose: 32.0 mg/kg/injection, schedule: Q04DX003 (ip), vehicle: alkali diluted with saline, evaluated on day 60) 116 % of control [8 of 10 alive]; (dose: 32.0 mg/kg/injection, schedule: Q04DX003 (ip), vehicle: alkali diluted with saline, evaluated on day 70) 154, 163 [9 of 10 alive], 166 % of control. The survivor count (dose: 32.0 mg/kg/injection, schedule: Q04DX003 (ip), vehicle: alkali diluted with saline) is 8 of 10 and 10 of 10.

Turning to `COc1cc2c3cc1Oc1c(O)c(OC)cc4c1[C@H](Cc1ccc(cc1)Oc1cc(ccc1O)C[C@H]3N(C)CC2)N(C)CC4`, the survivor count is, setting by setting: (dose: 80.0 mg/kg/injection, schedule: Q04DX003 (ip), vehicle: saline with Tween-80) 10 of 10; (dose: 160.0 mg/kg/injection, schedule: Q04DX003 (ip), vehicle: saline with Tween-80) 10 of 10.

Turning to `CN(C)CCCNc1c2ccccc2nc2cccc([N+](=O)[O-])c12`, the survivor count (dose: 0.7 mg/kg/injection, schedule: Q07DX002 (iv), vehicle: saline with Tween-80) is recorded as 3 of 10.

Take `OC(C1CO1)C(O)C1CO1` (stereo not drawn): the T/C (dose: 2.0 mg/kg/injection, schedule: Q04DX003 (ip), vehicle: saline) was 125 % of control; the T/C (dose: 4.0 mg/kg/injection, schedule: Q04DX003 (ip), vehicle: saline) was 144 % of control; the T/C (dose: 4.8 mg/kg/injection, schedule: Q07DX003 (iv), vehicle: saline) is 137 % of control. Besides, the survivor count (dose: 16.0 mg/kg/injection, schedule: Q04DX003 (ip), vehicle: saline) is recorded as 7 of 10.

In the case of `CCc1ncnc2cc(OCC3CO3)c(OC)cc12` (stereo not drawn), the survivor count by setting is: (dose: 40.0 mg/kg/injection, schedule: Q03DX002 (iv), vehicle: saline) 8 of 8 on day 10; (dose: 80.0 mg/kg/injection, schedule: Q03DX002 (sc), vehicle: saline) 8 of 8 on day 10. The T/C (dose: 80.0 mg/kg/injection, schedule: Q03DX002 (ip), vehicle: saline) is 125 % of control.

On to `NC(C/[N+]([O-])=N/O)C(=O)O` (stereo not drawn), for which, for the setting “dose: 100.0 mg/kg/injection, schedule: Q01DX010 (ip), vehicle: alkali diluted with saline”, the survivor count is 8 of 8.
